{"source": "the supplement of paper PMC3334620", "note": "Over roughly 33,000 sequences, “E-score (-0.5 to 0.5)” has its median near -0.015; the highest 2% begin near 0.3. The list shows a part of the results."}
{"molecular_target": "T1, Abf1 (UniProt P14164)", "T1 sequence": "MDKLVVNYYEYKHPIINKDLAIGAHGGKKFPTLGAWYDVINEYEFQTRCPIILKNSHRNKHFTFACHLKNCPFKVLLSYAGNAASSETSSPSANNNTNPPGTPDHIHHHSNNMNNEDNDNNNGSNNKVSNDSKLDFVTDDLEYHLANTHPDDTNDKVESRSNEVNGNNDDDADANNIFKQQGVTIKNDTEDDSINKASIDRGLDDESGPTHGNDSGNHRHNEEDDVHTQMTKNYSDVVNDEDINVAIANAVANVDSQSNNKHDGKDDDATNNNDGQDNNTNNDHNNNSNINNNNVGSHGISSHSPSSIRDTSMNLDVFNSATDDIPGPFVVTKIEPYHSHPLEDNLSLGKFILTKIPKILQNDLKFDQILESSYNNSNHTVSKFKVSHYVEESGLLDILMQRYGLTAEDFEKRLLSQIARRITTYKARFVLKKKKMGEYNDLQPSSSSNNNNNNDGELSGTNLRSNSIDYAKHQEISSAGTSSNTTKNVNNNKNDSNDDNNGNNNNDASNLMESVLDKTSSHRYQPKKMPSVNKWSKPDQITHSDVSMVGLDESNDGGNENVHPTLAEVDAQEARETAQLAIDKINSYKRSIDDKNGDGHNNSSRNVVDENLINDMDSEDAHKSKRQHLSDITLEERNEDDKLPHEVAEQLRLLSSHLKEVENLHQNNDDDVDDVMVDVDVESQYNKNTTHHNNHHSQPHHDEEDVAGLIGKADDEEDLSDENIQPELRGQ", "test": "PBM E-score (8-mer binding enrichment) (E-score (-0.5 to 0.5)); higher = stronger / more preferred TF binding", "details": "protein concentration: 200 nM; construct: GST-full length", "summary_of_the_method": "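Using PURExpress in vitro transcription/translation, GST-tagged yeast transcription factors were made in full-length or DNA-binding-domain form. These were applied at about 100-200 nM to double-stranded universal all-10-mer Agilent arrays, and bound protein was detected with fluorescent anti-GST. Scans were normalised with masliner before the Universal PBM Analysis Suite assigned E-scores to ungapped eight-base words pooled with their reverse complements.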"}
{"sequence": "GAGCGGCC", "PBM E-score": -0.239}
{"sequence": "AGGTCCAC", "PBM E-score": -0.0594}
{"sequence": "CAAGAGGC", "PBM E-score": -0.191}
{"sequence": "GATCTCTA", "PBM E-score": -0.0682}
{"sequence": "CCTTCGAC", "PBM E-score": -0.107}
{"sequence": "CACGCTGC", "PBM E-score": -0.0503}
{"sequence": "ACTTAACG", "PBM E-score": 0.0106}
{"sequence": "ATGTTCGC", "PBM E-score": 0.00598}
{"sequence": "AAAGCGGT", "PBM E-score": -0.032}
{"sequence": "CATGTTCC", "PBM E-score": -0.123}
{"sequence": "GCGTGCTA", "PBM E-score": 0.0297}
{"sequence": "ATAGATGG", "PBM E-score": -0.26}
{"sequence": "CTGCTCTA", "PBM E-score": 0.147}
{"sequence": "CACCTATG", "PBM E-score": -0.00725}
{"sequence": "ACCTGTCA", "PBM E-score": 0.0221}
{"sequence": "CGGCACGA", "PBM E-score": 0.278}
{"sequence": "ACACCTAG", "PBM E-score": -0.227}
{"sequence": "CGGTAGTA", "PBM E-score": 0.105}
{"sequence": "CCAGTCTA", "PBM E-score": -0.227}
{"sequence": "GCTTGTGA", "PBM E-score": -0.0307}
{"sequence": "CAATTATA", "PBM E-score": 0.0546}
{"sequence": "CGCCTTTA", "PBM E-score": 0.0353}
{"sequence": "AAATCTAC", "PBM E-score": -0.0132}
{"sequence": "ACGGGTGC", "PBM E-score": 0.0875}
{"sequence": "GCTGCCTA", "PBM E-score": -0.0861}
{"sequence": "AATATATG", "PBM E-score": 0.104}
{"sequence": "GATCTAAC", "PBM E-score": 0.0538}
{"sequence": "AATTTTCT", "PBM E-score": -0.0094}
{"sequence": "AACAGTCT", "PBM E-score": -0.213}
{"sequence": "ACACGGGC", "PBM E-score": 0.115}
{"sequence": "AGTACTCC", "PBM E-score": -0.194}
{"sequence": "CGTCAGCA", "PBM E-score": 0.0272}
{"sequence": "ACACTGAC", "PBM E-score": -0.0754}
{"sequence": "ATTTGAAC", "PBM E-score": 0.0262}
{"sequence": "ATAAATCC", "PBM E-score": 0.0498}
{"sequence": "AACAAAGT", "PBM E-score": 0.0675}
{"sequence": "CCCGATTC", "PBM E-score": -0.0345}
{"sequence": "CGCCGAGA", "PBM E-score": -0.0173}
{"sequence": "CGATACAC", "PBM E-score": 0.0793}
{"sequence": "CTTCGTCA", "PBM E-score": 0.246}
{"sequence": "CCCGCCAC", "PBM E-score": -0.159}
{"sequence": "AAAGGGCG", "PBM E-score": -0.136}
{"sequence": "TACGCCAA", "PBM E-score": -0.0663}
{"sequence": "AATCAATA", "PBM E-score": 0.133}
{"sequence": "CATTGGGA", "PBM E-score": 0.0169}
{"sequence": "GATCCATC", "PBM E-score": -0.0836}
{"sequence": "CATCAGCA", "PBM E-score": -0.0255}
{"sequence": "CGTGGCTA", "PBM E-score": 0.0277}
{"sequence": "ACCGTTCG", "PBM E-score": 0.279}
{"sequence": "CCCCGGTC", "PBM E-score": -0.265}
{"sequence": "ACGAAGAC", "PBM E-score": 0.308}
{"sequence": "CGCTCTGA", "PBM E-score": -0.00883}
{"sequence": "AACGAACC", "PBM E-score": 0.196}
{"sequence": "TACAGTCA", "PBM E-score": 0.171}
{"sequence": "AACCAATA", "PBM E-score": 0.149}
{"sequence": "AAGTGTTG", "PBM E-score": 0.0736}
{"sequence": "CCCCTCCG", "PBM E-score": -0.197}
{"sequence": "ACAGCGAA", "PBM E-score": -0.0537}
{"sequence": "TGAGAGCA", "PBM E-score": -0.0853}
{"sequence": "ATCATTAA", "PBM E-score": 0.307}
{"sequence": "CCAGTTGC", "PBM E-score": -0.18}
{"sequence": "TGCCCCCA", "PBM E-score": -0.238}
{"sequence": "AGGCGCCC", "PBM E-score": -0.0323}
{"sequence": "CGACAGTA", "PBM E-score": 0.139}
{"sequence": "AGTACATC", "PBM E-score": 0.176}
{"sequence": "ACAAAGTA", "PBM E-score": 0.146}
{"sequence": "ATATTGCC", "PBM E-score": 0.0422}
{"sequence": "AACACACC", "PBM E-score": -0.119}
{"sequence": "CGGCTGGA", "PBM E-score": -0.217}
{"sequence": "ACGCCCAA", "PBM E-score": -0.012}
{"sequence": "AGTGAATA", "PBM E-score": -0.0113}
{"sequence": "GGCGCAAC", "PBM E-score": 0.0368}
{"sequence": "AAAGTAAC", "PBM E-score": 0.0929}
{"sequence": "ACCTCTAG", "PBM E-score": 0.0246}
{"sequence": "AGTAATAC", "PBM E-score": 0.0597}
{"sequence": "ACCAGTGC", "PBM E-score": 0.00776}
{"sequence": "AAGTGAGT", "PBM E-score": 0.0964}
{"sequence": "CGGTAAGA", "PBM E-score": -0.0162}
{"sequence": "CCCACGGG", "PBM E-score": -0.0425}
{"sequence": "GCTGTCAA", "PBM E-score": 0.00671}
{"sequence": "AAGGAAGG", "PBM E-score": -0.113}
{"sequence": "TCAGAACA", "PBM E-score": 0.0451}
{"sequence": "CACTAGTC", "PBM E-score": -0.0679}
{"sequence": "GTGCACTA", "PBM E-score": 0.139}
{"sequence": "AACTGTGC", "PBM E-score": 0.106}
{"sequence": "CAAGCTCC", "PBM E-score": -0.31}
